In article PMC12147762 one finds binding data, which are given here for 4 molecules.

The target of assay [1] is T1, IRF4 (human (endogenous in MM1.S)) (UniProt Q15306).
T1 sequence: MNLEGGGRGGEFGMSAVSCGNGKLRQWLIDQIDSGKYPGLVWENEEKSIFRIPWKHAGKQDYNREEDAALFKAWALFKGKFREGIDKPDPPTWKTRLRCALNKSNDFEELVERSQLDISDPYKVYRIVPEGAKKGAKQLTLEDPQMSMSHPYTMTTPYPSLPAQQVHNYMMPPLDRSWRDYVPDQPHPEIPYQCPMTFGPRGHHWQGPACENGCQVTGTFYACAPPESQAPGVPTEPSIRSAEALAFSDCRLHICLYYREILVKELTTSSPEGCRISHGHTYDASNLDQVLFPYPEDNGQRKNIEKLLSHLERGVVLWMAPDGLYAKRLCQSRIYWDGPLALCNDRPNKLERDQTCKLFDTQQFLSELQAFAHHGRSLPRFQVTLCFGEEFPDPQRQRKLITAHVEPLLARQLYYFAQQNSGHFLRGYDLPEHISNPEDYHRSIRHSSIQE
Put plainly: co-IP; Endogenous proteins in MM1.S lysate (Pierce IP lysis buffer, sonicated); IP with IRF4 or POU2AF1 antibody overnight at 4°C, Dynabeads Protein G, immunoblot. In general terms: Immunoblotting shows a protein as a band on a membrane.

The next assay deals with T2, IRF4-Flag (UniProt Q15306).
T2 sequence: T1 sequence
As to the kind of experiment: co-IP; HEK293FT transiently transfected with POU2AF1-HA and IRF4-Flag; lysate in Pierce IP lysis buffer; IP with HA-tag or Flag-tag antibody overnight at 4°C, Dynabeads Protein G, immunoblot.

The target in assay [2] is T3, POU2AF1 (human (endogenous in MM1.S)) (UniProt Q16633).
T3 sequence: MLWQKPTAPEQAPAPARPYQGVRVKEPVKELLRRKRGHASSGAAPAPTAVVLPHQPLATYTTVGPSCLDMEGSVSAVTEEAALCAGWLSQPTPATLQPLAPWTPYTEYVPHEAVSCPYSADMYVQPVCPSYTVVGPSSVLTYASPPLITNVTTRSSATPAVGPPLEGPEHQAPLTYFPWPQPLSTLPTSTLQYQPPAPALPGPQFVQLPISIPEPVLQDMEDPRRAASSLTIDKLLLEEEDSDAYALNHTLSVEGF
Put plainly: co-IP; Endogenous proteins in MM1.S lysate (Pierce IP lysis buffer, sonicated); IP with IRF4 or POU2AF1 antibody overnight at 4°C, Dynabeads Protein G, immunoblot.

The next assay deals with T4, POU2AF1-HA (UniProt Q16633).
T4 sequence: T3 sequence
As to the kind of experiment: co-IP; HEK293FT transiently transfected with POU2AF1-HA and IRF4-Flag; lysate in Pierce IP lysis buffer; IP with HA-tag or Flag-tag antibody overnight at 4°C, Dynabeads Protein G, immunoblot.

No constants are given. Whether binding was seen depends on the method and setting. In cells and extracts the contact can be indirect. Some entries that bind do so weakly or less than the wild type. For some of these results: Sequences can lack the tags named with a protein.

B1: POU2AF1 (protein, UniProt Q16633 1-256)
chain: T3 sequence
With B1, the binding entry in assay [1] is listed as “binds”.

B2: POU2AF1-HA (protein, UniProt Q16633 1-256)
chain: T3 sequence
B2: the binding result with IRF4-Flag is given as “binds”.

B3: IRF4 (protein, UniProt Q15306 1-451)
chain: T1 sequence
Turning to B3, the binding entry in assay [2] is “binds”.

B4: IRF4-Flag (protein, UniProt Q15306 1-451)
chain: T1 sequence
Take B4: the binding result with POU2AF1-HA is reported as “binds”.
